Data published in PubChem BioAssay AID504467 (National Center for Advancing Translational Sciences (NCATS), 2011).
The campaign covered roughly 330,000 compounds. About 7,700 (2.3%) were called active. Inconclusive results, whose numbers are uncertain, are shown with a selection of clear calls. The call rests on the fitted dose curve; in most records, active means well fitted inhibition curve with a large enough effect; inconclusive means small, poorly fitted or top-dose-only effect, or effect the other way; inactive means flat fitted curve, though single readings scatter. A potency beside an inconclusive call is a rough fit, not a confirmed value.

Assay: qHTS screen for small molecules that inhibit ELG1-dependent DNA repair in human embryonic kidney (HEK293T) cells expressing luciferase-tagged ELG1; further: nearly all actives have a fitted effect of over 55% in size
Settings: HEK293T ELG1-luciferase reporter, luminescence, 16 h, DNA damage induced by 5-fluorouridine; series mostly up to 46.1 µM
Summary of the method: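 Luminescence from the luciferase reporter, measured 30 min after ONE-Glo reagent at room temperature, was the read-out. Beforehand, 2,000 cells per well were exposed for 16 hr at 37 °C to 5-fluorouridine together with compound or vehicle.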
Potency means the concentration at half of the fitted maximal effect.

SMILES	Potency
CC(=O)Nc1sc(C)c(C)c1C(=O)OCC(=O)Nc1cccc(C)c1	inconclusive: 14.6 µM [inhibitor, partial curve]
COc1cc2c(cc1OC)C(c1ccco1)CC(=O)N2 (stereo not given)	inconclusive: 23.1 µM [activator, single point]
CCn1c(SCCOc2ccc(OC)cc2)nnc1C(CO)NC(=O)c1ccc(OC)cc1 (stereo not given)	inactive
Cc1ccc(Cn2nnc3c(=O)[nH]c(C4CCCN(C(=O)Nc5ccc(F)cc5)C4)nc32)cc1 (stereo not given)	active: 16.4 µM
Cc1ccc(CCNC(=O)C2CCCN(S(C)(=O)=O)C2)cc1 (stereo not given)	inactive
CCC(Oc1ccccc1)C(=O)Nc1cc(C(F)(F)F)ccc1N1CCOCC1 (stereo not given)	inactive
O=C1c2ccccc2C(=O)N1c1ccc(Cc2ccncc2)cc1	inconclusive: 13 µM [inhibitor, partial curve]
COc1ccc(N/C=C/C(=O)c2ccc3c(c2)OCO3)cc1OC	inconclusive: 23.1 µM [activator, partial curve]
COc1cccc(NC(=O)NCCC2=CCCCC2)c1	inconclusive: 14.6 µM [activator, partial curve]
COc1ccc(N(C(=O)c2cnccn2)C(C(=O)NC2CCCCC2)c2ccccc2)cc1 (stereo not given)	inactive
Cc1ccc(-c2nnc(SCC(=O)N3CCCc4ccccc43)n2N)cc1	inconclusive: 11.2 µM [inhibitor, single point]
CC(NC(=O)c1cc2ccccc2o1)C(=O)O (stereo not given)	inconclusive: 20.6 µM [activator, partial curve, poor fit]
O=C(NC(=S)N1CCc2ccccc21)C1CCC1	inactive
CCC1(c2ccc(F)cc2)NC(=O)N(CC(=O)NC2CCCC(C)C2C)C1=O (stereo not given)	inactive
O=C(NC1CCSc2ccccc21)c1ccccc1Br (stereo not given)	inconclusive: 14.6 µM [activator, partial curve]
COc1ccc(N(Cc2ccccc2)C(=O)c2ccccc2[N+](=O)[O-])cc1	inconclusive: 18.4 µM [inhibitor, partial curve, poor fit]
N#Cc1c(NC(=O)C2CC(c3c(F)cccc3Cl)=NO2)sc2c1CCC2 (stereo not given)	inconclusive: 20.6 µM [activator, partial curve, poor fit]
O=C(NCC1CCCO1)c1cccc(C(=O)NCC2CCCO2)c1 (stereo not given)	inactive
CCN(CC)c1ccc2cc(-c3nc4ccccc4n3C)c(=O)oc2c1	inconclusive: 2.59 µM [activator, full curve]
Cc1c(C(=O)N2CCc3ccccc32)oc2ccccc12	inconclusive: 3.66 µM [activator, partial curve]

In the list so far, two have an aryl thioether with sulfur outside any ring.
SMILES	Potency
CCn1c(SCCOc2ccc(OC)cc2)nnc1C(CO)NC(=O)c1ccc(OC)cc1 (stereo not given)	inactive
Cc1ccc(-c2nnc(SCC(=O)N3CCCc4ccccc43)n2N)cc1	inconclusive: 11.2 µM [inhibitor, single point]
